No constants are given. Whether binding was seen depends on the method and setting. For some of these results: Binding seen in cells or lysates may run through a third protein. Some entries that bind do so weakly or less than the wild type. For some of these results: Tags and fused reporters may be left off the sequences shown.
Columns and labels:
[1] = biological target: T1, recombinant calnexin cytoplasmic tail (CNX-CT), N-terminal His-tag and SUMO domain, purified from E. coli (human) (UniProt P27824); test: brief legend of FIG. 5A
T1 sequence: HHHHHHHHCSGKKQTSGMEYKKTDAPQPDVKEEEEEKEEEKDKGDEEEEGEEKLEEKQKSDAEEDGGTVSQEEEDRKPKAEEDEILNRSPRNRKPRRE

The chains behind the UniProt entries cited, without tags or fusion partners. Where a name states a change or a piece, a line headed by the entry shows the natural chain unless it says otherwise. Residues count along the entry.
UniProt P27824: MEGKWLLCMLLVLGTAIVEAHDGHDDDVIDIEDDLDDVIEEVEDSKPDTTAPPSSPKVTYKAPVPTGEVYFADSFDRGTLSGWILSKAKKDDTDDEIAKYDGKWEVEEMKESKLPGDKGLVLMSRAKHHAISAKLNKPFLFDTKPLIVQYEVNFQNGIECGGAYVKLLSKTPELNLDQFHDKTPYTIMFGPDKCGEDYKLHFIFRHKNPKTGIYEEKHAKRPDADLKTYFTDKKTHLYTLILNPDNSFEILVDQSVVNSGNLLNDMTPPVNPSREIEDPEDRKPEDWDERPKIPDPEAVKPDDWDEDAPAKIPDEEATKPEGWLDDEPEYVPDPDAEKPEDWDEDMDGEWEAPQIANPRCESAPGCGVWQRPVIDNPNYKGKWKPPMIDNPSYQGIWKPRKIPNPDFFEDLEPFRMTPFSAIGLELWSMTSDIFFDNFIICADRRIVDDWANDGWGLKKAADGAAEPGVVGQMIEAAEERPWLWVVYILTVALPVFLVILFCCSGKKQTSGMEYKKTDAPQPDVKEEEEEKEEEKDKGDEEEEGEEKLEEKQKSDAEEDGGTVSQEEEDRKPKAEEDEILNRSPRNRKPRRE
UniProt P03407, residues 2-210: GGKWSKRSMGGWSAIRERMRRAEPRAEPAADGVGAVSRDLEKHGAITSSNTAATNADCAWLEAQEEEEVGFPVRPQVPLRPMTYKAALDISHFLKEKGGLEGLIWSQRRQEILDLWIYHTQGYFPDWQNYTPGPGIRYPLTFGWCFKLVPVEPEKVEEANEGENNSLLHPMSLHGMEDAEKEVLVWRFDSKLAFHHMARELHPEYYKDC

[2] = biological target: T2, recombinant full-length calnexin (CNX), His-tagged, purified from E. coli after removal of the CL7 tag (human) (UniProt P27824); test: brief legend of FIG. 5A
T2 sequence: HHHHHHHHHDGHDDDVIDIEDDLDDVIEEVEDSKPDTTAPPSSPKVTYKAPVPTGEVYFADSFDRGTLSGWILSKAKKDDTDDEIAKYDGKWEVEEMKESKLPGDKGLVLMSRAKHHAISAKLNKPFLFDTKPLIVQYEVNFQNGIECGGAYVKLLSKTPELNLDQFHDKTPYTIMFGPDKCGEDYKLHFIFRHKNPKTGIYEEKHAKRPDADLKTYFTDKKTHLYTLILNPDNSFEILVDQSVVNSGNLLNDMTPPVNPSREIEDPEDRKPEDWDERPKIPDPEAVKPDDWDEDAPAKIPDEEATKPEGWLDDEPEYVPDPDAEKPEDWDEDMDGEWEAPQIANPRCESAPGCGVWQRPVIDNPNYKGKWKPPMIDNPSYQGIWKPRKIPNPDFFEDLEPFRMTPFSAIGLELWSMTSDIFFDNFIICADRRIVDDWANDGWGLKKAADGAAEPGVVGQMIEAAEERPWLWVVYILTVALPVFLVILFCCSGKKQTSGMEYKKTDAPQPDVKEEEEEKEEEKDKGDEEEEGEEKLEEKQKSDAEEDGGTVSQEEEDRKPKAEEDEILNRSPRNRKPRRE

[3] = biological target: T1, recombinant calnexin cytoplasmic tail (CNX-CT), N-terminal His-tag and SUMO domain, purified from E. coli (human); test: SPR with purified recombinant proteins (legend of FIG. 5)
[4] = biological target: T2, recombinant full-length calnexin (CNX), His-tagged, purified from E. coli after removal of the CL7 tag (human); test: as above
[5] = biological target: T1, recombinant calnexin cytoplasmic tail (CNX-CT), N-terminal His-tag and SUMO domain, purified from E. coli (human); test: SPR (Biacore T-200, CM5 chip), CNX-CT immobilised by amine coupling, myristoylated NefSF2 injected at 6.25-200 nM [right panel 'Nef BINDING TO CNX-CT']
[6] = biological target: T2, recombinant full-length calnexin (CNX), His-tagged, purified from E. coli after removal of the CL7 tag (human); test: SPR (Biacore T-200, CM5 chip), CNX immobilised by amine coupling, myristoylated NefSF2 injected at 6.25-200 nM in triplicate [left panel 'Nef BINDING TO CNX']
[7] = biological target: endogenous calnexin (HEK293T and other human cells) (human) (UniProt P27824); test: co-immunoprecipitation from HEK293T cells transfected with HA-tagged Nef and treated with DMSO, NSC 1758, NSC 13987 or NSC 92938; IP with anti-HA agarose, western blot for Nef and calnexin; densitometry of 3 experiments

Measured: binding

myristoylated NefSF2 (from UniProt P03407 2-210)
binds: [1] | [2] | [3] | [4] | [5] | [6]

HA-tagged Nef (NefBRU) (from UniProt P03406 2-206)
binds: [7]
